{"source": "PubChem BioAssay AID686937 (Drosophila RNAi Screening Center, 2013)", "aim": "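Genes in the fly needed for secretion of protein constitutively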 (primary screen)", "cells": "Drosophila S2 cells expressing secreted horseradish peroxidase", "reagent": "long dsRNA against Drosophila genes", "duration": "about 5.5 days (5 days dsRNA, then 12 h reporter induction)", "challenge": "reporter expression induced after 5 days of dsRNA, read 12 h later; inducer not stated", "detection": "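After 5 days of dsRNA and 12 h of reporter induction, medium peroxidase read by chemiluminescence and scored as per-plate z-score; higher values mean more reporter released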", "direction": "z-score: higher = more reporter secreted into medium", "note": "The deposit covers about 23,000 reagents; shown is a random part of those that have a named target and a result. 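Reduced-secretion tags in replicate 1 do not always agree with the z-scores; no criterion for assigning the tags was given.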 The numbers tell different reagents against one gene apart. A plus sign joins genes that one reagent is predicted to hit. The record does not give: the amount of reagent."}
{"predicted target": "caps (capricious)", "reagent": 1, "z-score, replicate 1": 0.23, "z-score, replicate 2": 0.15}
{"predicted target": "caps (capricious)", "reagent": 2, "z-score, replicate 1": -0.09, "z-score, replicate 2": -0.23}
{"predicted target": "CG3368", "reagent": 1, "z-score, replicate 1": 0.57, "z-score, replicate 2": 0.39}
{"predicted target": "CG12817 + CG12420", "reagent": 1, "z-score, replicate 1": 0.07, "z-score, replicate 2": 0.36}
{"predicted target": "TBC1D23 (TBC1 domain family member 23)", "reagent": 1, "z-score, replicate 1": 0.16, "z-score, replicate 2": 0.22}
{"predicted target": "CG15824", "reagent": 1, "z-score, replicate 1": 0.12, "z-score, replicate 2": 0.31}
{"predicted target": "ppl (pumpless)", "reagent": 1, "z-score, replicate 1": 0.24, "z-score, replicate 2": 0.29}
{"predicted target": "CG15528", "reagent": 1, "z-score, replicate 1": -0.27, "z-score, replicate 2": -0.04}
{"predicted target": "Tg (Transglutaminase)", "reagent": 1, "z-score, replicate 1": 0.32, "z-score, replicate 2": 0.04}
{"predicted target": "dpr16 (defective proboscis extension response 16)", "reagent": 1, "z-score, replicate 1": 0.38, "z-score, replicate 2": 0.47}
{"predicted target": "dpr16 (defective proboscis extension response 16)", "reagent": 2, "z-score, replicate 1": -0.49, "z-score, replicate 2": -0.69}

Next part (2 carried over from the part before).
{"predicted target": "dpr16 (defective proboscis extension response 16)", "reagent": 1, "z-score, replicate 1": 0.38, "z-score, replicate 2": 0.47}
{"predicted target": "dpr16 (defective proboscis extension response 16)", "reagent": 2, "z-score, replicate 1": -0.49, "z-score, replicate 2": -0.69}
{"predicted target": "Kdm5 (Lysine demethylase 5)", "reagent": 1, "z-score, replicate 1": 0.15, "z-score, replicate 2": -0.26}
{"predicted target": "ZnT86D (Zinc transporter 86D)", "reagent": 1, "z-score, replicate 1": -0.19, "z-score, replicate 2": 0.37}
{"predicted target": "mAChR-C (muscarinic Acetylcholine Receptor, C-type)", "reagent": 1, "z-score, replicate 1": 0.2, "z-score, replicate 2": 0.64}
{"predicted target": "RpS28a (Ribosomal protein S28a)", "reagent": 1, "z-score, replicate 1": 0.12, "z-score, replicate 2": -0.19}
{"predicted target": "CG1265", "reagent": 1, "z-score, replicate 1": 0.51, "z-score, replicate 2": 0.04}
{"predicted target": "CG13083", "reagent": 1, "z-score, replicate 1": 0.05, "z-score, replicate 2": 0.13}
{"predicted target": "CG3626", "reagent": 1, "z-score, replicate 1": 0.18, "z-score, replicate 2": 0.48}
{"predicted target": "CG32551", "reagent": 1, "z-score, replicate 1": -0.29, "z-score, replicate 2": -0.2}
{"predicted target": "upd3 (unpaired 3)", "reagent": 1, "z-score, replicate 1": 0.19, "z-score, replicate 2": 0.39}
{"predicted target": "upd3 (unpaired 3)", "reagent": 2, "z-score, replicate 1": 0.32, "z-score, replicate 2": 0.5}
{"predicted target": "upd3 (unpaired 3)", "reagent": 3, "z-score, replicate 1": -0.49, "z-score, replicate 2": -0.01}
{"predicted target": "PpD5 (Protein phosphatase D5)", "reagent": 1, "z-score, replicate 1": 0.64, "z-score, replicate 2": 0.47}
{"predicted target": "CG7506", "reagent": 1, "z-score, replicate 1": 0.38, "z-score, replicate 2": 0.4}
{"predicted target": "CG8952", "reagent": 1, "z-score, replicate 1": 0.11, "z-score, replicate 2": 0.21}
{"predicted target": "Gale (UDP-galactose 4'-epimerase)", "reagent": 1, "z-score, replicate 1": 0.14, "z-score, replicate 2": -0.13}
{"predicted target": "glob3 (globin 3)", "reagent": 1, "z-score, replicate 1": 0.55, "z-score, replicate 2": 0.71}
